Results published in publication PMC3765993, “The duration of sleep promoting efficacy by dual orexin receptor antagonists is dependent upon receptor occupancy threshold” (BMC Neuroscience, 2013).
Several values for one entry are separate records, joined by “and”; a condition that tells them apart may be missing. Equal entries are not always repeated.

Tests used:
[1] = rhesus monkeys, 10 mg/kg p.o.
rhesus monkeys = tested on: rhesus monkeys; design: method as in PMID 23552372; details: 10 mg/kg, active-phase dosing, quantified over 2 h; cited from earlier work
in vivo = details: rhesus monkey, po, 10 mg/kg

CN1C(=O)CN=C(c2ccccc2)c2cc(Cl)ccc21 [Diazepam]
Time of plasma Cmax [1]: 1.0 h and 1 h
Attenuation of active wake relative to vehicle (rhesus monkeys): 38.4 min
Cmax (in vivo): 775 nM
